3 sequences from patent US20040259096 can be followed below.

Chains of the proteins cited; added tags and fusions are not shown. A line that says so, or that is headed by a name, gives the form on record, which may keep a tag or linker.
AhR/ARNT heteromer (guinea pig liver) (Cavia porcellus), one chain, as listed by the source, chain 2 of 2: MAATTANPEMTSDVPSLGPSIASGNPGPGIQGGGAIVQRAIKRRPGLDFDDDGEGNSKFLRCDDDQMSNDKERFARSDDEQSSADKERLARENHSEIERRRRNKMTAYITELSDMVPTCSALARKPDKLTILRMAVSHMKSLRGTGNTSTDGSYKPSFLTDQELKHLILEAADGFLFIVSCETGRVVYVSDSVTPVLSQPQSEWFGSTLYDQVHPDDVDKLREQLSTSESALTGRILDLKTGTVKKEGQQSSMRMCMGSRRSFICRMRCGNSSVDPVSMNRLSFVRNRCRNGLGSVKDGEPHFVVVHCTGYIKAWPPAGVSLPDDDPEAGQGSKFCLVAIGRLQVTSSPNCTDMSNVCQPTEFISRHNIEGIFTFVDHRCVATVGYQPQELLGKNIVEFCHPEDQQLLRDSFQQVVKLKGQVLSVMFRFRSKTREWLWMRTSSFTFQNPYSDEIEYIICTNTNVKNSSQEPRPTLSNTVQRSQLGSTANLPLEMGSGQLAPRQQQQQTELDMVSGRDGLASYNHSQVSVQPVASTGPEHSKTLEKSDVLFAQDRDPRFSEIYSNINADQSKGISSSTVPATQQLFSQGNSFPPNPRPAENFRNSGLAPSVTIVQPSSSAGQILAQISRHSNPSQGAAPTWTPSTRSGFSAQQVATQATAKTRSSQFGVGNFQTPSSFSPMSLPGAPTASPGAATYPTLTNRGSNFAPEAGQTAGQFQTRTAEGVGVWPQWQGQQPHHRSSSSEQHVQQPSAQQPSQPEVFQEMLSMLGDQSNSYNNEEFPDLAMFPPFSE
AhR/GST-ARNT(1-474) heterodimer (Mus musculus), one chain, as listed by the source, chain 1 of 2: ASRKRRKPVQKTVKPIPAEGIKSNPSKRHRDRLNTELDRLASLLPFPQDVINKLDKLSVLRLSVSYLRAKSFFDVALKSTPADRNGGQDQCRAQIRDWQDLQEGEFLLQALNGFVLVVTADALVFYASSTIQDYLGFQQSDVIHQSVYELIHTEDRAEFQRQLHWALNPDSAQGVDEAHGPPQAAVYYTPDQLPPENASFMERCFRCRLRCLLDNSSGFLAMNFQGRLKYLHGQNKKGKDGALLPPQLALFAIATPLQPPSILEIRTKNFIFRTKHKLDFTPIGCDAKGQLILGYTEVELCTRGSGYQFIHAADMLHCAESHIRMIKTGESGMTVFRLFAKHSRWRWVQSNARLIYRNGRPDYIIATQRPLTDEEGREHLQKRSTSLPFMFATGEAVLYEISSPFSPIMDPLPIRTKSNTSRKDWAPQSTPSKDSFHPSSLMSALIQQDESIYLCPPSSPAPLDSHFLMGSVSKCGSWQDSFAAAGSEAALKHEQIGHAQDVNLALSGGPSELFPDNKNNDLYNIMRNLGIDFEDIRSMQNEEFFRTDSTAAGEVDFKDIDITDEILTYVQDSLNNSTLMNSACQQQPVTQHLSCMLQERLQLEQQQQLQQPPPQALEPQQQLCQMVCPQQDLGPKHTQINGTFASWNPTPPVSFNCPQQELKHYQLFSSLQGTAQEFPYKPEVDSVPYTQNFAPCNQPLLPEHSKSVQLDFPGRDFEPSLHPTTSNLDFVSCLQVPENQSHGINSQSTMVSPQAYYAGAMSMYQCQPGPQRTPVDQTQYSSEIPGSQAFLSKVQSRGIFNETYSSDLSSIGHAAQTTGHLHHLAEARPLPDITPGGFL
AhR/ARNT heteromer (guinea pig liver) (Cavia porcellus), one chain, as listed by the source, chain 1 of 2: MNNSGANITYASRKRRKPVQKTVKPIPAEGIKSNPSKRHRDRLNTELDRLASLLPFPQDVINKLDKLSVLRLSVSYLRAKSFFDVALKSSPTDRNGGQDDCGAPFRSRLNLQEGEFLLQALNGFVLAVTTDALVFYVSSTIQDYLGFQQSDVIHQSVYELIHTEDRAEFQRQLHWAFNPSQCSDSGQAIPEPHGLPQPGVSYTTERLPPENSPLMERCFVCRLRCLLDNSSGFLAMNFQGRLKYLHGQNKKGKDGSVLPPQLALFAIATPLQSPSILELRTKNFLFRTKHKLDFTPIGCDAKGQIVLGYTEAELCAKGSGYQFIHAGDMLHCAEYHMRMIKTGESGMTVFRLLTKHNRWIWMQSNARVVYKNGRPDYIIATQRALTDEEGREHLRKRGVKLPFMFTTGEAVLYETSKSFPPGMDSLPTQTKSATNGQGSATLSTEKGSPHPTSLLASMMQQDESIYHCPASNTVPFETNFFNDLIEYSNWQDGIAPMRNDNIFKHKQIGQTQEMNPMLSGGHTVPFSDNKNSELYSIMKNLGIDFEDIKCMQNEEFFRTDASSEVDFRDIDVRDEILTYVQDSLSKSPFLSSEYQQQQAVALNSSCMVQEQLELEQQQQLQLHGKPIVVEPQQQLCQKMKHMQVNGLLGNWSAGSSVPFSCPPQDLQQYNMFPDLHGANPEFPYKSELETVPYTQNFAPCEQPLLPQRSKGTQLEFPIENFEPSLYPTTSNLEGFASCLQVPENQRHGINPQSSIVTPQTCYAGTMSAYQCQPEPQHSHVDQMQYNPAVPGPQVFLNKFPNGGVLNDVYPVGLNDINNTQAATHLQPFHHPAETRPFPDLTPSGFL
AhR/ARNT heteromer (rat liver) (Rattus norvegicus), one chain, as listed by the source, chain 2 of 2: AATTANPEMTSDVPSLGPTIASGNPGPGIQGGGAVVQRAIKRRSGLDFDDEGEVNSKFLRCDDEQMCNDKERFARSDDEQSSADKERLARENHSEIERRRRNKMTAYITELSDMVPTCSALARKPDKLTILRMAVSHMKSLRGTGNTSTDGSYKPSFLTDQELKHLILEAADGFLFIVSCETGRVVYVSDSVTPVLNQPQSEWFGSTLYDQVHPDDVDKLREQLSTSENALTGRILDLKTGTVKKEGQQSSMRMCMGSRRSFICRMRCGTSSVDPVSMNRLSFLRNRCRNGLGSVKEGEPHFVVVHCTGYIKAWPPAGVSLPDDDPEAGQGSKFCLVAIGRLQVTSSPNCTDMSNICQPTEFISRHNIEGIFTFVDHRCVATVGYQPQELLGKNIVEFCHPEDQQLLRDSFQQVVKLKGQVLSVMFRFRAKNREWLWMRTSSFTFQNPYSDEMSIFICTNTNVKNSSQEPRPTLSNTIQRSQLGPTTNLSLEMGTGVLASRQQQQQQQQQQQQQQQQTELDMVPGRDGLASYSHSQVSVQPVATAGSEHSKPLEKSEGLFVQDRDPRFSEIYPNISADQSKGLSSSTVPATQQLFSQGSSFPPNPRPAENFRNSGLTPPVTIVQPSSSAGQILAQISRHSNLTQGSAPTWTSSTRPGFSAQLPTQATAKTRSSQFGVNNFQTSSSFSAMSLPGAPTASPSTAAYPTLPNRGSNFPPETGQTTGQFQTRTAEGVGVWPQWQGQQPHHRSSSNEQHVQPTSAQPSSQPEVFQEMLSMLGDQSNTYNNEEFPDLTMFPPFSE
AhR/ARNT heteromer (rat liver) (Rattus norvegicus), one chain, as listed by the source, chain 1 of 2: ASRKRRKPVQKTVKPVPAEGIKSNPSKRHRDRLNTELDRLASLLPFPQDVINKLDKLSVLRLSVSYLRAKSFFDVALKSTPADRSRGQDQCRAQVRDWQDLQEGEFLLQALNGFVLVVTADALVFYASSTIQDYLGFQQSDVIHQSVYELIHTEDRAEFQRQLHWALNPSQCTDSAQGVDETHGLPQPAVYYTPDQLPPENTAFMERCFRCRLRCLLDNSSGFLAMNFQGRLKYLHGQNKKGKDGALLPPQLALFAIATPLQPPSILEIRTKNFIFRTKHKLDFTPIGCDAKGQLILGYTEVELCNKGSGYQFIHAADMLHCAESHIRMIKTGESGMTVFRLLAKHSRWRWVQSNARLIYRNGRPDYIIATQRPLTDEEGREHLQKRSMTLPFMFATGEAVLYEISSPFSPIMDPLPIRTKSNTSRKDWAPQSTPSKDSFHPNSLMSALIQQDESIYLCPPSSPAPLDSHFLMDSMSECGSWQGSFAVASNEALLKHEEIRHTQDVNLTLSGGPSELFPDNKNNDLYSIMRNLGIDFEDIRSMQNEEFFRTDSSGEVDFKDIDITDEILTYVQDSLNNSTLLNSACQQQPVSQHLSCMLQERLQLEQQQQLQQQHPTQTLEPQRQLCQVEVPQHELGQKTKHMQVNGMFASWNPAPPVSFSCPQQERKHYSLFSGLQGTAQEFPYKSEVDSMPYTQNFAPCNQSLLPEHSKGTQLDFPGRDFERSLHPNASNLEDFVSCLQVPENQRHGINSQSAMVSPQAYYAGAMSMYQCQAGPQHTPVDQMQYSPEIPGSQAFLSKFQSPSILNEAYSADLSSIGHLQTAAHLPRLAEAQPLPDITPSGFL
AhR/ARNT heteromer (Hepa 1c1c7) (Mus musculus), one chain, as listed by the source, chain 2 of 2: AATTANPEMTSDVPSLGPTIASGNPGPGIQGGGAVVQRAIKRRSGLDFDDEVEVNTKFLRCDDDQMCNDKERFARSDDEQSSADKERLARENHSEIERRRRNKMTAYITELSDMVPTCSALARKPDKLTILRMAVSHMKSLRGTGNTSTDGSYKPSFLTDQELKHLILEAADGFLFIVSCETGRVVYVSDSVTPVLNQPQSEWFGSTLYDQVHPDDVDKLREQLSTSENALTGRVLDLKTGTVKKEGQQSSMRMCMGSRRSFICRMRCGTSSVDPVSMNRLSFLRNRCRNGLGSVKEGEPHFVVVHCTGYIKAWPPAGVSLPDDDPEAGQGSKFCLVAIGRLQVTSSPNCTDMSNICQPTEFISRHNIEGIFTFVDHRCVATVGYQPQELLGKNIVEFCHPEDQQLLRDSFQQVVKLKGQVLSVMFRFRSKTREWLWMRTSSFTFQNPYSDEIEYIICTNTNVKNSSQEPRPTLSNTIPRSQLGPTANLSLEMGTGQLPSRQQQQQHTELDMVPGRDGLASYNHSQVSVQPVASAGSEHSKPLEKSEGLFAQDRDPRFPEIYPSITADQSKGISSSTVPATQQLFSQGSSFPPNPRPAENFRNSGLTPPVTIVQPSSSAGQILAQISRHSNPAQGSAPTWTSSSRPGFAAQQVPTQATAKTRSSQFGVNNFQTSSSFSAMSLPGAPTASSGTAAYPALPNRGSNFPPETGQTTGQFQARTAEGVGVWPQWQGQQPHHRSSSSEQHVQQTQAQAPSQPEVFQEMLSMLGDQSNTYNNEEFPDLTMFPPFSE

At least one result comes from cells or an extract, where the contact may be indirect.

The subject of data set [1] is AhR/ARNT heteromer (rat liver) (Rattus norvegicus). The data set is described as follows: binding assay. The settings on record: antibody capture then real-time PCR; ligand (TCDD) EC50 2.8 pg in assay; protein in an extract.
Data set [2] concerns AhR/ARNT heteromer (guinea pig liver) (Cavia porcellus). Kind of data set: binding assay. The settings on record: antibody capture then real-time PCR; ligand (TCDD) EC50 2.6 pg in assay; protein in an extract. In general terms: In qPCR the cycle at which signal appears reflects the starting amount.
For data set [3], the system named is AhR/GST-ARNT(1-474) heterodimer (Mus musculus). Kind of data set: binding assay. The settings on record: anti-GST capture PCR; signal 3013 with 10 uM BNF vs 363 DMSO; 60 mM NaCl, salmon sperm DNA; protein in an extract.
Data set [4] has as its system AhR/biotinylated GST-ARNT(1-474) heterodimer. Kind of data set: binding assay. Particulars: neutravidin capture PCR; BNF 392 vs DMSO 122 at 500 fmol tracer; 60 mM NaCl, salmon sperm DNA; protein in an extract; protein details: GST and biotin (Sulfo-NHS-LC-Biotin) on ARNT.
For data set [5], the system named is AhR/ARNT heteromer (Hepa 1c1c7) (Mus musculus). Kind of data set: binding assay. The settings on record: anti-ARNT capture then PCR; binding increases with TCDD (5430 counts at 0, 504879 at 1000 fmol) or BNF; protein in an extract.
In data set [6] the test system is HIF-1 alpha/ARNT (HIF-1 beta) heterodimer (Homo sapiens). Kind of data set: binding assay. Particulars: anti-ARNT capture real-time PCR; Ct 20.47 CoCl2-treated vs 23.08 untreated cytosol; nuclear extract Ct 23.5; protein in an extract.
Data set [7] has the same test system. The data set is described as follows: competition with a labelled probe. Particulars: 100x competitor raises Ct 20.47 to 22.52 (treated cytosol) and 23.5 to 26.51 (nuclear extract); protein in an extract.

As to “CAACTTCATCCACGTTCACCTCGAGCTGGGGGCATTGCGTGACAAGCCGTACCTGTCCTTGGCTCTTC (double strand) [DRE tracer (DRE1/DRE2)]”, the binding result in data set [1], in data set [2], in data set [3], in data set [4] and in data set [5] was “binds” in each case.

With “CAACTTCATCCAGTCTCACCGATCGCCCTACGTGCTGTCTCGACTCTGTCCTTGGCTCTAC (double strand) [HRE tracer (HRE1/HRE2)]”, the binding result in data set [6] is listed as “binds”.

“GATCGCCCTACGTGCTGTCTC (double strand) [competitor HRE (HRECo1/HRECo2)]”: the binding result in data set [7] is listed as “binds”.
